Source: article PMC7819943, “Rice protein-binding microarrays: a tool to detect cis-acting elements near promoter regions in rice”
Some of the results follow.

Amino acid sequences for entries named in this document (tags omitted).
UniProt Q0JBA9, entry or part of it: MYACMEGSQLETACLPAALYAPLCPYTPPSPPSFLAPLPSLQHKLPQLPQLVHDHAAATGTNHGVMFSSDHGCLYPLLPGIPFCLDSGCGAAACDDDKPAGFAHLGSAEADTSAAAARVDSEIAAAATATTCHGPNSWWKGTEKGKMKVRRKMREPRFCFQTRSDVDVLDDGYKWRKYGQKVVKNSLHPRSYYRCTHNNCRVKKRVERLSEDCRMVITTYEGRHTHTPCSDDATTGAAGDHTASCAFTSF

Target: OsWRKY34 (Oryza sativa, UniProt Q0JBA9 1-250)
Assay: protein-binding microarray (RPBM); PBS, 2% BSA, 51.3 ng/ul salmon testes DNA, 50 uM zinc acetate, 200 nM TF, 25 C, 1 h; high values mean tight binding
Details: protein: recombinant; tags: N-terminal polyhistidine and DsRed monomer fusion (pET32a); label: CyDye5-dUTP incorporated in the synthesized complementary strand; 3' TTTTT single-stranded linker to array surface; dsDNA, one strand shown
Summary of the method: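 For the binding signal, per-feature fluorescence intensity was read in arbitrary units on an Axon 4000B scanner. Before scanning, a 2% BSA-blocked custom Agilent array made double-stranded with Cy5-dUTP was washed after 1 h at 25 °C with 200 nM protein and 50 µM zinc acetate. The proteins were Ni–NTA-purified transcription factors with N-terminal polyhistidine and DsRed fusions, expressed in E. coli BL21-CodonPlus.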

| Sequence | binding signal |
| --- | --- |
| CAGGACCATGTTGTTGGTCGCGTTTCTGCGGTTCTGATTTCGGAGTCACCTAGTGCAG | 9570 fluorescence intensity (a.u.) |
| GGAGGCCCAGATTCCGCGGCTCGCTTCGTCGTCTCGTCTACGGAGTCACCTAGTGCAG | 10100 fluorescence intensity (a.u.) |
| CTTGGTTTCTTGTTGTGCAACTCTCGTCGTCTCGTTCATCCGGAGTCACCTAGTGCAG | 11500 fluorescence intensity (a.u.) |
| CATACGTTTCCTGTGATTCAATACACTTGCAATACTCTGACGGAGTCACCTAGTGCAG | 12900 fluorescence intensity (a.u.) |
| GCTGCTTCCATCAATACAATACAACTAGTGATTTCGTTGCCGGAGTCACCTAGTGCAG | 8040 fluorescence intensity (a.u.) |
| GCTGTCTTAGCTCTGAAAATTTTGTATTGTTCATTTGAGGCGGAGTCACCTAGTGCAG | 9170 fluorescence intensity (a.u.) |
| GATGTCCACTTCTGCACTTATATATTTTTATTTATTTATTCGGAGTCACCTAGTGCAG | 11700 fluorescence intensity (a.u.) |
| CCTCTTCTCATCACCACTCGTCTCCTCTTCTCGCTTCGCCCGGAGTCACCTAGTGCAG | 8400 fluorescence intensity (a.u.) |
| CGGATTCGCCACAGATCTCTCGCCCCACGTCGCCGCCCTCCGGAGTCACCTAGTGCAG | 10200 fluorescence intensity (a.u.) |
| CTTATCCACCATCAATGTTCCTGACTTCAATTTTTCGTTGCGGAGTCACCTAGTGCAG | 10500 fluorescence intensity (a.u.) |
| AAACCCTAGCTCCGGATTCTTCTCCTCTCCTCCTTTCTTCCGGAGTCACCTAGTGCAG | 8070 fluorescence intensity (a.u.) |
| GATGCATTTATCCCCTGTGCGTTGTTCGGTTGTTGATCCGCGGAGTCACCTAGTGCAG | 9820 fluorescence intensity (a.u.) |
| ATAGTACTGTTATCTGTTGGCACTTAGGGCTTTTTGGCGACGGAGTCACCTAGTGCAG | 8940 fluorescence intensity (a.u.) |
| ATTATCTTTTTTTCGATGCCTTACAACAAATACGCATTCTCGGAGTCACCTAGTGCAG | 10500 fluorescence intensity (a.u.) |
| CTTATTAGACCCTGTTTAGTTCCGCGAAAATTTTTCTCAACGGAGTCACCTAGTGCAG | 8330 fluorescence intensity (a.u.) |
| TCCAGTTGTTTTGGATAGGCTTGTAGCTAGTCAACTATATCGGAGTCACCTAGTGCAG | 9450 fluorescence intensity (a.u.) |
| CTACCTTTTGTTCTTGCTTTTTTTTAATTTTTTTTGGGTACGGAGTCACCTAGTGCAG | 8910 fluorescence intensity (a.u.) |
| CCCAGCAGTTTCTTCACTATCGCGTATCTCACACCAAAAACGGAGTCACCTAGTGCAG | 9420 fluorescence intensity (a.u.) |
| AATAAGACGAACGGTCAAACATATTTAAAAAAGTCAACGGCGGAGTCACCTAGTGCAG | 9950 fluorescence intensity (a.u.) |
| CCTCCACTCACAGAGCCAACGAGAGCTCGCCTACATAAACCGGAGTCACCTAGTGCAG | 8300 fluorescence intensity (a.u.) |
| AATTAATCATGCGTTAATGGACCGTTCCGTTTTCCGTGTTCGGAGTCACCTAGTGCAG | 8920 fluorescence intensity (a.u.) |
| ACGTAACCTTACTTTCCATCCATTATTGCCCTTGACAGTTCGGAGTCACCTAGTGCAG | 13800 fluorescence intensity (a.u.) |
| GTTTTCTTTGTTGTCATCATCCTTGCTGGACTCGTCCTTACGGAGTCACCTAGTGCAG | 9500 fluorescence intensity (a.u.) |

Five successive entries out of the list so far, quoted:

| Sequence | binding signal |
| --- | --- |
| CCTCTTCTCATCACCACTCGTCTCCTCTTCTCGCTTCGCCCGGAGTCACCTAGTGCAG | 8400 fluorescence intensity (a.u.) |
| CGGATTCGCCACAGATCTCTCGCCCCACGTCGCCGCCCTCCGGAGTCACCTAGTGCAG | 10200 fluorescence intensity (a.u.) |
| CTTATCCACCATCAATGTTCCTGACTTCAATTTTTCGTTGCGGAGTCACCTAGTGCAG | 10500 fluorescence intensity (a.u.) |
| AAACCCTAGCTCCGGATTCTTCTCCTCTCCTCCTTTCTTCCGGAGTCACCTAGTGCAG | 8070 fluorescence intensity (a.u.) |
| GATGCATTTATCCCCTGTGCGTTGTTCGGTTGTTGATCCGCGGAGTCACCTAGTGCAG | 9820 fluorescence intensity (a.u.) |
